# Experimental data reported in the supplement of paper PMC8728848.
# The list shows a part of the results.
# B1: PX9961W-pdi-543-27-543 (Parabacteroides distasonis) (protein)
# chain: EGNATTTSYFLNDQQAIDAIDGLYERFHQEGCYGRELFWEQGAACDIVWGRTRGYNSLATLAYTGDESPLRDVFSRMYSTMSRANWIIQELVKKEKGTTLTAVEKRSLGEAYFSRGWAHYLIAYRYGTDKQGVPFVRYEDFPDDYDNSIPPQQATVMDNYKLIIEDMDKAIAYLPIFESYDADNRGRAHQAAAVAFKAKTYAYWATWDATQWNNVIEMVNQLENNYNRDLAPTFAELFSSDLKDYWNAEYLWTIPSIGGALPGGTEFPGIILENKGWGKYNGWGQMKPSYDIYEEMAKDGKGNDRLVRSILEYNQEFPFFGETRKFWSTSDLEAGFMINKYMDAFKYSDPVGEGAVSANGDWPTVRVNFPIIRFAEMLLFRAEAYLMTGQADKATADINRIRLRSNLTPLTGTATMKDLYHERRCELAFEFTDHLFDLKRWNRSSNADIKTLADKELNAHPRIRRYEDRANPESAFTIIGYEDYTNKNAYQAHMMVFPYPSEEITKSNGQLKQNEGY
# Columns and labels:
# Test in all cases: glycan array binding signal (z-score within array); higher = stronger binding
# Details in all cases: glycan notation: IUPAC condensed, linker removed
# [1] = molecular target: GlcNAc(b1-3)Gal(b1-4)GlcNAc(b1-3)Gal(b1-4)GlcNAc(b1-2)Man(a1-3)[GlcNAc(b1-3)Gal(b1-4)GlcNAc(b1-3)Gal(b1-4)GlcNAc(b1-2)Man(a1-6)]Man(b1-4)GlcNAc(b1-4)[Fuc(a1-6)]GlcNAc
# In short: (§1)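 Columns mapping to the same glycan were averaged after glycan names were converted to IUPAC-condensed notation. The data come from 3228 arrays in the Consortium for Functional Glycomics database, limited to those with an available protein sequence. Binding is reported as a within-array Z-score averaged across arrays of one protein sequence and across linkers.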
# [2] = molecular target: GlcNAc(b1-3)Gal(b1-4)GlcNAc(b1-3)Gal(b1-4)GlcNAc(b1-2)[GlcNAc(b1-3)Gal(b1-4)GlcNAc(b1-3)Gal(b1-4)GlcNAc(b1-6)]Man(a1-6)[GlcNAc(b1-3)Gal(b1-4)GlcNAc(b1-3)Gal(b1-4)GlcNAc(b1-2)Man(a1-3)]Man(b1-4)GlcNAc(b1-4)[Fuc(a1-6)]GlcNAc
# In short: as §1
# [3] = molecular target: GlcNAc(b1-3)Gal(b1-4)GlcNAc(b1-3)Gal(b1-4)GlcNAc(b1-3)Gal(b1-4)GlcNAc(b1-2)Man(a1-3)[GlcNAc(b1-3)Gal(b1-4)GlcNAc(b1-3)Gal(b1-4)GlcNAc(b1-3)Gal(b1-4)GlcNAc(b1-2)Man(a1-6)]Man(b1-4)GlcNAc(b1-4)GlcNAc
# In short: as §1
# [4] = molecular target: GlcNAc(b1-3)Gal(b1-4)GlcNAc(b1-3)Gal(b1-4)GlcNAc(b1-3)Gal(b1-4)GlcNAc(b1-2)Man(a1-3)[GlcNAc(b1-3)Gal(b1-4)GlcNAc(b1-3)Gal(b1-4)GlcNAc(b1-3)Gal(b1-4)GlcNAc(b1-2)Man(a1-6)]Man(b1-4)GlcNAc(b1-4)[Fuc(a1-6)]GlcNAc
# In short: as §1
# [5] = molecular target: GlcNAc(b1-3)Gal(b1-4)GlcNAc(b1-3)Gal(b1-4)GlcNAc(b1-3)Gal(b1-4)GlcNAc(b1-2)[GlcNAc(b1-3)Gal(b1-4)GlcNAc(b1-3)Gal(b1-4)GlcNAc(b1-3)Gal(b1-4)GlcNAc(b1-6)]Man(a1-6)[GlcNAc(b1-3)Gal(b1-4)GlcNAc(b1-3)Gal(b1-4)GlcNAc(b1-3)Gal(b1-4)GlcNAc(b1-2)Man(a1-3)]Man(b1-4)GlcNAc(b1-4)[Fuc(a1-6)]GlcNAc
# In short: as §1
# [6] = molecular target: GlcNAc(b1-3)Gal(b1-4)GlcNAc(b1-3)Gal(b1-4)GlcNAc(b1-3)Gal(b1-4)GlcNAc(b1-3)Gal(b1-4)GlcNAc(b1-2)Man(a1-3)[GlcNAc(b1-3)Gal(b1-4)GlcNAc(b1-3)Gal(b1-4)GlcNAc(b1-3)Gal(b1-4)GlcNAc(b1-3)Gal(b1-4)GlcNAc(b1-2)Man(a1-6)]Man(b1-4)GlcNAc(b1-4)GlcNAc
# In short: as §1
# [7] = molecular target: GlcNAc(b1-3)Gal(b1-4)GlcNAc(b1-3)Gal(b1-4)GlcNAc(b1-3)Gal(b1-4)GlcNAc(b1-3)Gal(b1-4)GlcNAc(b1-2)Man(a1-3)[GlcNAc(b1-3)Gal(b1-4)GlcNAc(b1-3)Gal(b1-4)GlcNAc(b1-3)Gal(b1-4)GlcNAc(b1-3)Gal(b1-4)GlcNAc(b1-2)Man(a1-6)]Man(b1-4)GlcNAc(b1-4)[Fuc(a1-6)]GlcNAc
# In short: as §1
# [8] = molecular target: GlcNAc(b1-3)Gal(b1-4)GlcNAc(b1-3)Gal(b1-4)GlcNAc(b1-3)Gal(b1-4)GlcNAc(b1-3)Gal(b1-4)GlcNAc(b1-2)[GlcNAc(b1-3)Gal(b1-4)GlcNAc(b1-3)Gal(b1-4)GlcNAc(b1-3)Gal(b1-4)GlcNAc(b1-3)Gal(b1-4)GlcNAc(b1-6)]Man(a1-6)[GlcNAc(b1-3)Gal(b1-4)GlcNAc(b1-3)Gal(b1-4)GlcNAc(b1-3)Gal(b1-4)GlcNAc(b1-3)Gal(b1-4)GlcNAc(b1-2)Man(a1-3)]Man(b1-4)GlcNAc(b1-4)[Fuc(a1-6)]GlcNAc
# In short: as §1
# [9] = molecular target: GlcNAc(b1-3)Gal(b1-4)GlcNAc(b1-3)Gal(b1-4)GlcNAc(b1-3)GalNAc
# In short: as §1
# [10] = molecular target: GlcNAc(b1-3)Gal(b1-4)GlcNAc(b1-3)GalNAc
# In short: as §1
# [11] = molecular target: GlcNAc(b1-3)Gal(b1-4)GlcNAc(b1-3)[GlcNAc(b1-3)Gal(b1-4)GlcNAc(b1-3)]GalNAc
# In short: as §1
# [12] = molecular target: GlcNAc(b1-3)Gal(b1-4)GlcNAc(b1-6)[Gal(b1-3)]GalNAc
# In short: as §1
# [13] = molecular target: GlcNAc(b1-3)Gal(b1-4)GlcNAc(b1-6)[GlcNAc(b1-3)Gal(b1-3)]GalNAc
# In short: as §1
# [14] = molecular target: GlcNAc(b1-3)Gal(b1-4)GlcNAc(b1-6)[GlcNAc(b1-3)]Gal(b1-4)GlcNAc
# In short: as §1
# GlcNAc(b1-3)GalNAc = molecular target: GlcNAc(b1-3)GalNAc
# In short: as §1
# GlcNAc(b1-3)Man = molecular target: GlcNAc(b1-3)Man
# In short: as §1
# [15] = molecular target: GlcNAc(b1-3)[GlcNAc(b1-4)][GlcNAc(b1-6)]GlcNAc
# In short: as §1
# [16] = molecular target: GlcNAc(b1-3)[GlcNAc(b1-6)]Gal(b1-4)GlcNAc
# In short: as §1
# [17] = molecular target: GlcNAc(b1-3)[GlcNAc(b1-6)]GalNAc
# In short: as §1
# [18] = molecular target: GlcNAc(b1-4)Gal(b1-4)GlcNAc
# In short: as §1
# GlcNAc(b1-4)GlcNAc = molecular target: GlcNAc(b1-4)GlcNAc
# In short: as §1
# [19] = molecular target: GlcNAc(b1-4)GlcNAc(b1-4)GlcNAc
# In short: as §1
# [20] = molecular target: GlcNAc(b1-4)GlcNAc(b1-4)GlcNAc(b1-4)GlcNAc(b1-4)GlcNAc
# In short: as §1
# [21] = molecular target: GlcNAc(b1-4)GlcNAc(b1-4)GlcNAc(b1-4)GlcNAc(b1-4)GlcNAc(b1-4)GlcNAc
# In short: as §1
# [22] = molecular target: GlcNAc(b1-4)[GlcNAc(b1-6)]GalNAc
# In short: as §1
# [23] = molecular target: GlcNAc(b1-6)Gal(b1-4)GlcNAc
# In short: as §1
# GlcNAc(b1-6)GalNAc = molecular target: GlcNAc(b1-6)GalNAc
# In short: as §1
# [24] = molecular target: GlcNAc6S(b1-3)Gal(b1-4)GlcNAc
# In short: as §1
# Kdn(a2-3)Gal(b1-3)GalNAc = molecular target: Kdn(a2-3)Gal(b1-3)GalNAc
# In short: as §1
# Kdn(a2-3)Gal(b1-3)GlcNAc = molecular target: Kdn(a2-3)Gal(b1-3)GlcNAc
# In short: as §1
# Kdn(a2-3)Gal(b1-4)Glc = molecular target: Kdn(a2-3)Gal(b1-4)Glc
# In short: as §1
# Kdn(a2-3)Gal(b1-4)GlcNAc = molecular target: Kdn(a2-3)Gal(b1-4)GlcNAc
# In short: as §1
# [25] = molecular target: Kdn(a2-3)Gal(b1-4)[Fuc(a1-3)]GlcNAc
# In short: as §1
# Kdn(a2-6)Gal(b1-4)GlcNAc = molecular target: Kdn(a2-6)Gal(b1-4)GlcNAc
# In short: as §1
# [26] = molecular target: Man(a1-2)Man(a1-2)Man(a1-3)Man
# In short: as §1
# [27] = molecular target: Man(a1-2)Man(a1-2)Man(a1-6)[Man(a1-3)]Man
# In short: as §1
# Man(a1-2)Man(a1-3)Man = molecular target: Man(a1-2)Man(a1-3)Man
# In short: as §1
# [28] = molecular target: Man(a1-2)Man(a1-3)[Man(a1-2)Man(a1-6)]Man
# In short: as §1
binder,measurement,setting,value
B1,glycan array binding signal (z-score),[1],1.58
same,glycan array binding signal (z-score),[2],0.54
same,glycan array binding signal (z-score),[3],1.92
same,glycan array binding signal (z-score),[4],1.14
same,glycan array binding signal (z-score),[5],0.321
same,glycan array binding signal (z-score),[6],0.627
same,glycan array binding signal (z-score),[7],2.16
same,glycan array binding signal (z-score),[8],2.07
same,glycan array binding signal (z-score),[9],0.148
same,glycan array binding signal (z-score),[10],-0.785
same,glycan array binding signal (z-score),[11],1.26
same,glycan array binding signal (z-score),[12],0.168
same,glycan array binding signal (z-score),[13],0.07
same,glycan array binding signal (z-score),[14],0.324
same,glycan array binding signal (z-score),GlcNAc(b1-3)GalNAc,-0.745
same,glycan array binding signal (z-score),GlcNAc(b1-3)Man,0.469
same,glycan array binding signal (z-score),[15],0.162
same,glycan array binding signal (z-score),[16],-0.115
same,glycan array binding signal (z-score),[17],0.099
same,glycan array binding signal (z-score),[18],0.426
same,glycan array binding signal (z-score),GlcNAc(b1-4)GlcNAc,0
same,glycan array binding signal (z-score),[19],-0.547
same,glycan array binding signal (z-score),[20],1.13
same,glycan array binding signal (z-score),[21],-0.34
same,glycan array binding signal (z-score),[22],0.793
same,glycan array binding signal (z-score),[23],0.326
same,glycan array binding signal (z-score),GlcNAc(b1-6)GalNAc,0.306
same,glycan array binding signal (z-score),[24],0.873
same,glycan array binding signal (z-score),Kdn(a2-3)Gal(b1-3)GalNAc,0.669
same,glycan array binding signal (z-score),Kdn(a2-3)Gal(b1-3)GlcNAc,-0.01
same,glycan array binding signal (z-score),Kdn(a2-3)Gal(b1-4)Glc,-0.49
same,glycan array binding signal (z-score),Kdn(a2-3)Gal(b1-4)GlcNAc,-0.351
same,glycan array binding signal (z-score),[25],0.488
same,glycan array binding signal (z-score),Kdn(a2-6)Gal(b1-4)GlcNAc,-0.305
same,glycan array binding signal (z-score),[26],-0.734
same,glycan array binding signal (z-score),[27],-0.156
same,glycan array binding signal (z-score),Man(a1-2)Man(a1-3)Man,0.12
same,glycan array binding signal (z-score),[28],-0.438

# Random excerpt: three records from the list
binder,measurement,setting,value
B1,glycan array binding signal (z-score),[20],1.13
same,glycan array binding signal (z-score),[3],1.92
same,glycan array binding signal (z-score),[14],0.324
